For this experiment, the target named is DENN domain of Lst4 (truncated two-hybrid construct) (S. cerevisiae). The experiment is described as follows: two-hybrid; Lst7 as prey in pACT2 (GAL activation domain); Lst4, its truncations and COPII coat genes as bait in pLexPD (LexA DNA binding domain); L40 reporter strain; serial dilutions spotted on plates with and without histidine; LacZ beta-galactosidase assay as second reporter.

Our source for the binding values is paper PMC4703059.

No constants are given. Whether binding was seen depends on the method and setting. Binding calls can cover weak binding; strength is not graded here. Sequences can lack the tags named with a protein.

B1: Lst7 (GAL activation domain fusion, pACT2) (protein, UniProt P53237 1-242)
chain: MSSTVISLAHFCDKHGPRIISVTQSAEKGTLGEELLVPDYPTESYCESCLLQFPEESTRSMRCFIEDVPFITTQYSSIRYQLLNSIIKRAFSEETMIYDNMPFIFFDDLRGLNLVIGFKLYDENARGNERRYCFILTVDSRSHDDSMKMLSEHWNFIIGGFDKMIAYIKNIHKSEFLGKNKTVENNLETLNNNAFIGSYLRANKSKFGRNLVSLTDDKFLFVRIHKWNSFLLHTVMNENKLP
B1: the binding result is “binds”.
